PubChem BioAssay AID686943 | Drosophila RNAi Screening Center – 2013

Test: 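Fly genes whose loss alters ERK activation after insulin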 (primary screen)
System: Drosophila S2R+ haemocyte-like cells expressing YFP-tagged ERK (Rolled)
Reagents: long dsRNA against Drosophila genes
Challenge: insulin stimulation versus unstimulated cells; dose and duration not given
Read-out: 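Antibody staining for doubly phosphorylated ERK divided by ERK-YFP signal, as plate z-scores, in insulin-treated and untreated cells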
Reading the numbers: replicate 1, z-score of dpERK with insulin and replicate 2, z-score of dpERK with insulin: higher = more active ERK per ERK-YFP after insulin
The screen tested about 23,000 reagents; shown is an unselected part of those with a known target gene and a result. 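Extra replicates exist only for a retested subset of genes; insulin dose and duration not given; both raised and lowered dpERK matter.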 The numbers tell different reagents against one gene apart. Not all columns of the deposit are shown. Not given: the amount of reagent, the time to read-out.

CR40282 — replicate 1, z-score of dpERK with insulin = -0.72; replicate 2, z-score of dpERK with insulin = -0.44
CG13185 — replicate 1, z-score of dpERK with insulin = 0.69; replicate 2, z-score of dpERK with insulin = -0.07
CG5162 — replicate 1, z-score of dpERK with insulin = -1.07; replicate 2, z-score of dpERK with insulin = -0.73
CG43795 #1 — replicate 1, z-score of dpERK with insulin = -0.45; replicate 2, z-score of dpERK with insulin = -0.22
CG43795 #2 — replicate 1, z-score of dpERK with insulin = 0.53; replicate 2, z-score of dpERK with insulin = -0.87
CG43795 #3 — replicate 1, z-score of dpERK with insulin = 0.17; replicate 2, z-score of dpERK with insulin = -0.72
CG43795 #4 — replicate 1, z-score of dpERK with insulin = 1.15; replicate 2, z-score of dpERK with insulin = 0.38
CG43795 #5 — replicate 1, z-score of dpERK with insulin = 0.15; replicate 2, z-score of dpERK with insulin = 1.5
CG43795 #6 — replicate 1, z-score of dpERK with insulin = 1.1; replicate 2, z-score of dpERK with insulin = 0.78
CG43795 #7 — replicate 1, z-score of dpERK with insulin = 0.26; replicate 2, z-score of dpERK with insulin = -0.33
Nct — replicate 1, z-score of dpERK with insulin = 0.31; replicate 2, z-score of dpERK with insulin = 0.58
CG31523 #1 — replicate 1, z-score of dpERK with insulin = 0.32; replicate 2, z-score of dpERK with insulin = -0.48
CG31523 #2 — replicate 1, z-score of dpERK with insulin = 1.23; replicate 2, z-score of dpERK with insulin = 0.89
Jhbp13 — replicate 1, z-score of dpERK with insulin = 0.11; replicate 2, z-score of dpERK with insulin = -0.25
CG9101 — replicate 1, z-score of dpERK with insulin = 0; replicate 2, z-score of dpERK with insulin = -1.24
CG7668 — replicate 1, z-score of dpERK with insulin = 0.74; replicate 2, z-score of dpERK with insulin = 0.08
CR33013 — replicate 1, z-score of dpERK with insulin = -0.69; replicate 2, z-score of dpERK with insulin = -0.11
GstO1 — replicate 1, z-score of dpERK with insulin = 1.06; replicate 2, z-score of dpERK with insulin = 1.98
Vps13 — replicate 1, z-score of dpERK with insulin = -0.2; replicate 2, z-score of dpERK with insulin = 0.18
CG8997 — replicate 1, z-score of dpERK with insulin = -0.5; replicate 2, z-score of dpERK with insulin = -0.1
Prosalpha7 — replicate 1, z-score of dpERK with insulin = -1.6; replicate 2, z-score of dpERK with insulin = -2.06

A stretch taken from the entries so far:
CG9101 — replicate 1, z-score of dpERK with insulin = 0; replicate 2, z-score of dpERK with insulin = -1.24
CG7668 — replicate 1, z-score of dpERK with insulin = 0.74; replicate 2, z-score of dpERK with insulin = 0.08
